# Source: publication PMC4548209
# Chains of the proteins cited; added tags and fusions are not shown.
# UniProt Q02780: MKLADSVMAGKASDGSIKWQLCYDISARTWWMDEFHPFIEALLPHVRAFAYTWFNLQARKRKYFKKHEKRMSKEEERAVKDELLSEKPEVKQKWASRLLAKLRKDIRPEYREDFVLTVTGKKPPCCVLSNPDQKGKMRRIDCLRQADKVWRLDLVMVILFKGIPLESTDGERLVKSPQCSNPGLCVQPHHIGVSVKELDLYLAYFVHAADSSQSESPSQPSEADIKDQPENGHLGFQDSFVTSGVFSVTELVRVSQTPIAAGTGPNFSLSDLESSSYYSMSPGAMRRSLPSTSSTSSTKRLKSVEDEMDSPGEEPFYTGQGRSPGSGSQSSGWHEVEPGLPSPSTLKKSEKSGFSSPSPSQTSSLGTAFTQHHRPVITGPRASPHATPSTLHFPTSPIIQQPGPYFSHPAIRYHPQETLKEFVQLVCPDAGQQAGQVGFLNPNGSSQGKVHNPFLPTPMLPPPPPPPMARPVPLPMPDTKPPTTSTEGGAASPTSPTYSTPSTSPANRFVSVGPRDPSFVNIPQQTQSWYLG
# No constants are given. Whether binding was seen depends on the method and setting. Some entries that bind do so weakly or less than the wild type.
# What was measured:
# Experiment in all cases: two-hybrid; pGADT7-AD and pGBKT7-DBD fusions co-transformed into S. cerevisiae AH109; interaction as growth on -Ade/-His/-Leu/-Trp plates; three independent experiments
# [1] = target: NF1-B1 (yeast two-hybrid fusion) (mouse) (UniProt P97863)
# [2] = target: NF1-A (yeast two-hybrid fusion) (mouse) (UniProt Q02780)
# [3] = target: Full-length NKX2-5 (yeast two-hybrid fusion) (mouse) (UniProt P42582)
# [4] = target: NKX2-5 C-terminal region (aa198-318) (yeast two-hybrid fusion) (mouse) (UniProt P42582)
Substance,binding [1],binding [2],binding [3],binding [4]
Full-length NKX2-5 (yeast two-hybrid fusion) (from UniProt P42582 1-318),binds,no binding,,
NKX2-5 C-terminal region (aa198-318) (yeast two-hybrid fusion) (from UniProt P42582 198-318) (domain or fragment),,,binds,binds
